Measurements from the supplement of paper PMC11732987, “Enantioselective OTUD7B fragment discovery through chemoproteomics screening and high-throughput optimisation” (Communications Chemistry, 2025).
This is one part of the list. The data scatter; read single values as rough.

Legend:
[1] = compound: ClCC(=O)N[C@@H]1CCCc2ccccc12; experiment: log2 mean competition ratio of IA-DTB cysteine labelling (DMSO/compound) (log2 ratio); higher = stronger cysteine engagement by compound; conditions: treatment time: 4 h, cell line lysate: HEK293T
Procedure: (§1)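 IA-DTB competitive cysteine chemoproteomics in HEK293T RIPA lysate. Lysates were treated with compound 29 or 30 at 50 or 200 µM for 4 h, then IA-DTB (500 µM, 1 h), trypsin-digested, NeutrAvidin-enriched and analysed by diaPASEF. Competition ratio = intensity DMSO / intensity compound (n=4 treated, n=64 DMSO); binding: mean log2 CR ≥ 1 and p ≤ 0.05 plus QC filters. Target is the cysteine site.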

[2] = compound: ClCC(=O)N[C@H]1CCCc2ccccc12; experiment: as above; conditions: treatment time: 4 h, cell line lysate: HEK293T
Procedure: as §1

Row | Target | log2 mean competition ratio ([1]; 50 µM) | log2 mean competition ratio ([1]; 200 µM) | log2 mean competition ratio ([2]; 50 µM) | log2 mean competition ratio ([2]; 200 µM)
1 | CSTF2 C150 (UniProt P33240) | 0.207 | 0.00457 | 0.276 | 0.0269
2 | CRNKL1 C640 (UniProt Q9BZJ0) | 0.157 | -0.286 | 0.353 | -0.136
3 | DCAF13 C342 (UniProt Q9NV06) | 0.0903 | -0.0667 | -0.222 | -0.131
4 | CTNNA1 C337 (UniProt P35221) | -0.163 | -0.0387 | 0.053 | -0.0281
5 | DDX20 C98 (UniProt Q9UHI6) | 0.545 | 0.278 | 0.582 | 0.39
6 | DDX17 C447 (UniProt Q92841) | -0.262 | -0.127 | 0.0784 | -0.196
7 | DCAF7 C109 (UniProt P61962) | -0.108 | 0.0372 | -0.177 | -0.0891
8 | CXorf38 C12 (UniProt Q8TB03) | -0.0311 | 0.0761 | 0.178 | 0.237
9 | CYRIB C253 | 0.146 | -0.0568 | -0.229 | -0.00854
10 | CREBBP C398 (UniProt Q92793) | 0.642 | -0.233 | 0.523 | -0.385
11 | DCTN4_(C41,C41,C51,C51,C54,C54) (UniProt Q9UJW0) | -0.269 | 0.184 | -0.018 | -0.453
12 | CSDE1 C106 (UniProt O75534) | 0.179 | -0.00939 | -0.0361 | -0.256
13 | DAB2IP C1065 (UniProt Q5VWQ8) | -0.196 | -0.0505 | -0.115 | 0.0297
14 | DCUN1D1 C115 | -0.123 | -0.335 | 0.107 | -0.317
15 | DDOST C145 (UniProt P39656) | -0.156 | -0.317 | 0.0636 | -0.195
16 | DDX23 C692 (UniProt Q9BUQ8) | 0.275 | -0.0479 | 0.147 | 0.0606
17 | DCAF7 C61 (UniProt P61962) | -0.159 | 0.292 | 0.00355 | 0.0857
18 | CUTC C223 (UniProt Q9NTM9) | -0.00446 | -0.0132 | 0.376 | 0.117
19 | DDX5 C354 (UniProt P17844) | 0.0349 | 0.0423 | 0.271 | -0.0165
20 | DDX21 C682 (UniProt Q9NR30) | -0.244 | 0.206 | -0.217 | 0.101
21 | CUL7 C60 (UniProt Q14999) | 0.261 | -0.0351 | -0.0521 | 0.226
22 | CUL1 C496 (UniProt Q13616) | 0.021 | 0.646 | -0.13 | 0.26
23 | DAP3 C98 (UniProt P51398) | 0.39 | 0.236 | -0.0657 | 0.0609
24 | CTDP1 C429 (UniProt Q9Y5B0) | -0.196 | -0.487 | 0.384 | 0.0658
25 | CUL2 C721 (UniProt Q13617) | -0.19 | -0.351 | 0.39 | -0.141
26 | CTPS1 C299 (UniProt P17812) | 0.0935 | -0.185 | -0.342 | -0.149

Row | Target | log2 mean competition ratio ([1]; 50 µM) | log2 mean competition ratio ([1]; 200 µM) | log2 mean competition ratio ([2]; 50 µM) | log2 mean competition ratio ([2]; 200 µM)
27 | DDX51 C253 (UniProt Q8N8A6) | 0.242 | 0.408 | -0.17 | 0.268
28 | CTPS1 C176 (UniProt P17812) | 0.422 | 0.118 | 0.397 | 0.125
29 | CTNND1 C450 (UniProt O60716) | -0.0185 | 0.144 | 0.0586 | 0.224
30 | CTU2 C2 (UniProt Q2VPK5) | -0.224 | -0.171 | 0.147 | -0.101
31 | CYLD C655 (UniProt Q9NQC7) | 0.592 | 0.371 | 0.253 | -0.011
32 | DDX18 C407 (UniProt Q9NVP1) | -0.0751 | -0.0736 | 0.194 | -0.181
33 | CTR9 C196 (UniProt Q6PD62) | -0.0395 | 0.0321 | -0.0936 | 0.131
34 | CRYZ C45 (UniProt Q08257) | 0.441 | 0.0425 | 0.334 | -0.0313
35 | CUL1 C355 (UniProt Q13616) | -0.128 | -0.146 | 0.282 | 0.0652
36 | CSDE1 C680 (UniProt O75534) | -0.0153 | -0.39 | 0.215 | -0.381
37 | CYP20A1 C409 (UniProt Q6UW02) | 0.0223 | 0.0638 | 0.0658 | 0.373
38 | DDX10 C295 (UniProt Q13206) | -0.188 | 0.25 | 0.0941 | 0.0979
39 | DARS2 C371 (UniProt Q6PI48) | -0.159 | 0.0336 | 0.0748 | 0.0985
40 | CSE1L C842 (UniProt P55060) | 0.059 | 0.0446 | 0.0768 | 0.0915
41 | DDA1 C25 (UniProt Q9BW61) | 0.332 | 0.0737 | 0.467 | 0.0866
42 | CSK C14 (UniProt P41240) | 0.0604 | -0.227 | -0.435 | -0.118
43 | DARS2 C152 (UniProt Q6PI48) | 0.0451 | -0.258 | 0.535 | 0.0803
44 | DAXX C728 (UniProt Q9UER7) | -0.29 | 0.251 | 0.252 | 0.543
45 | CTNND1 C516 (UniProt O60716) | -0.172 | 0.0837 | -0.144 | 0.0313
46 | CRBN C219 (UniProt Q96SW2) | 0.0507 | 0.15 | -0.00119 | 0.454
47 | CTPS1 C216 (UniProt P17812) | 0.186 | 0.1 | 0.201 | 0.325
48 | DDX28 C170 (UniProt Q9NUL7) | -0.119 | 0.029 | -0.218 | 0.105
49 | DAGLB C465 (UniProt Q8NCG7) | -0.00162 | -0.0476 | 0.095 | -0.0207
50 | DDX24 C832 (UniProt Q9GZR7) | 0.135 | 0.05 | 0.348 | 0.123
51 | CSNK1A1;CSNK1A1L C249;(C249) | 0.133 | 0.0409 | 0.0746 | 0.169
52 | DDX39B C239 | -0.0145 | -0.2 | -0.222 | -0.262

Full records as entered above. Values in the order: log2 mean competition ratio ([1]; 50 µM) | log2 mean competition ratio ([1]; 200 µM) | log2 mean competition ratio ([2]; 50 µM) | log2 mean competition ratio ([2]; 200 µM)
CRNKL1 C640 (UniProt Q9BZJ0) reads 0.157 | -0.286 | 0.353 | -0.136
CTPS1 C299 (UniProt P17812) reads 0.0935 | -0.185 | -0.342 | -0.149
CSE1L C842 (UniProt P55060) reads 0.059 | 0.0446 | 0.0768 | 0.0915
